Counter-ions that a name gives are not always drawn.
Test system: iPSC-CMs, iPSC-ECs and HUVECs phenotypes
Assay: ToxPi 2.0 integration of POD values and physicochemical descriptors
Parameters: species or system human
Details: HUVECs, 18 hr; scaled from POD
Source text: Phenotypic responses were quantitatively assessed using concentration–response modeling as detailed elsewhere ([Sirenko et al. 2017]). Briefly, phenotypic readouts were normalized to vehicle controls and fit to a four-parameter logistic model in R studio software (version 3.1.1; R Development Core Team). Following EPA guidance on dose–response modeling, a cutoff of one standard deviation across means of vehicle control (i.e., 0.5% vol/vol DMSO in cell culture media) wells was applied to determine the point-of-departure (POD) values ([U.S. EPA 2012]). In the absence of a concentration–response, the highest tested concentration (i.e., 100μM ) was assigned as “no observable adverse effect level.” The concentration–response assessment R script, as well as templates for vehicle and concentration–response data, are available as a supplement to Sirenko et al. ([2017]). The ability of physicochemical properties to predict differences in PODs were evaluated by multiregression and mixed-effects modeling using R.
POD values were then integrated using ToxPi 2.0 ([Marvel et al. 2018]) software. In ToxPi, each slice is representative of cell type– and time-point–specific phenotypes. The area of each slice is proportional to the relative value (e.g., bioactivity or physicochemical descriptor value) of the chemical within the data set. ToxPi scores were used to rank PCBs and their metabolites according to their overall bioactivity and to determine variability in total observable biological responses and chemical characteristics for each major metabolite class and chlorination status (mono-, hexa-chlorinated). Additional visualizations such as dumbbell and principal components analysis plots were generated in R Studio (version 1.1.456; R version 3.5.1; R Development Core Team) using the ggplot2 package.

Structure (SMILES)	huvec.mtl.18hr ToxPi	huvec.tlps.18hr ToxPi	huvec.tta.18hr ToxPi	huvec.ttl.18hr ToxPi
Oc1ccc(O)c(-c2ccc(Cl)cc2)c1 [2',5'-DiOH PCB3]	0.98	0.79	0.85	0.66
Oc1ccccc1-c1ccc(Cl)cc1 [2'-OH PCB3]	0.00	0.98	0.00	0.00
O=S(=O)(O)Oc1cc(Cl)ccc1-c1ccccc1 [2-yl PCB 3 sulfate]	0.50	0.19	0.00	0.00

Same assay, conditions: HUVECs, 24 hr; scaled from POD

Structure (SMILES)	huvec.cyto.24hr ToxPi	huvec.mito.24hr ToxPi	huvec.mitoint.24hr ToxPi	huvec.nma.24hr ToxPi
Oc1ccc(O)c(-c2ccc(Cl)cc2)c1 [2',5'-DiOH PCB3]	0.70	0.79	0.66	0.31
Oc1ccccc1-c1ccc(Cl)cc1 [2'-OH PCB3]	0.31	0.38	0.21	0.53
O=S(=O)(O)Oc1cc(Cl)ccc1-c1ccccc1 [2-yl PCB 3 sulfate]	0.00	0.00	0.00	0.00

Same assay, conditions: HUVECs, 24 hrs; scaled from POD

Structure (SMILES)	huvec.tc.24hrs ToxPi
Oc1ccc(O)c(-c2ccc(Cl)cc2)c1 [2',5'-DiOH PCB3]	0.70
Oc1ccccc1-c1ccc(Cl)cc1 [2'-OH PCB3]	0.31
O=S(=O)(O)Oc1cc(Cl)ccc1-c1ccccc1 [2-yl PCB 3 sulfate]	0.00

Same assay, conditions: iPSC-CM

Structure (SMILES)	cm.amp.avg.24hrs ToxPi	cm.amp.avg.90min ToxPi	cm.amp.cv.24hrs ToxPi	cm.amp.cv.90min ToxPi	cm.bpm.24hrs ToxPi	cm.bpm.90min ToxPi	cm.cam.24hrs ToxPi	cm.cam.90min ToxPi	cm.decay.rise.24hrs ToxPi	cm.decay.rise.90min ToxPi
Oc1ccc(O)c(-c2ccc(Cl)cc2)c1 [2',5'-DiOH PCB3]	0.41	0.26	0.76	0.59	0.73	0.18	0.54	0.46	0.93	0.23
Oc1ccccc1-c1ccc(Cl)cc1 [2'-OH PCB3]	0.24	1.00	0.06	1.00	0.17	0.60	0.12	0.46	0.67	0.97
O=S(=O)(O)Oc1cc(Cl)ccc1-c1ccccc1 [2-yl PCB 3 sulfate]	0.00	0.00	0.00	0.00	0.00	0.55	0.00	0.00	0.00	0.00

Same assay, conditions: iPSC-CM

Structure (SMILES)	cm.mii.24hrs ToxPi	cm.mii.90min ToxPi	cm.mito.24hrs ToxPi	cm.mito.90min ToxPi	cm.spacing.cv.24hrs ToxPi	cm.spacing.cv.90min ToxPi	cm.tc.24hrs ToxPi	cm.tc.90min ToxPi
Oc1ccc(O)c(-c2ccc(Cl)cc2)c1 [2',5'-DiOH PCB3]	1.00	0.95	1.00	0.84	1.00	0.35	0.91	0.45
Oc1ccccc1-c1ccc(Cl)cc1 [2'-OH PCB3]	0.72	0.89	0.26	0.36	0.18	0.33	0.24	0.44
O=S(=O)(O)Oc1cc(Cl)ccc1-c1ccccc1 [2-yl PCB 3 sulfate]	0.00	0.97	0.00	0.00	0.00	0.00	0.00	0.00

Same assay, conditions: iPSC-EC tube formation, 18 hr; scaled from POD

Structure (SMILES)	endo.mtl.18hr ToxPi	endo.tlps.18hr ToxPi	endo.tta.18hr ToxPi	endo.ttl.18hr ToxPi
Oc1ccc(O)c(-c2ccc(Cl)cc2)c1 [2',5'-DiOH PCB3]	0.56	0.84	0.37	0.39
Oc1ccccc1-c1ccc(Cl)cc1 [2'-OH PCB3]	0.21	0.38	0.11	0.14
O=S(=O)(O)Oc1cc(Cl)ccc1-c1ccccc1 [2-yl PCB 3 sulfate]	0.00	0.00	0.00	0.00

Same assay, conditions: iPSC-EC, 24 hr; scaled from POD

Structure (SMILES)	endo.cyto.24hr ToxPi	endo.mito.24hr ToxPi	endo.mitoint.24hr ToxPi	endo.nma.24hr ToxPi	endo.tc.24hrs ToxPi
Oc1ccc(O)c(-c2ccc(Cl)cc2)c1 [2',5'-DiOH PCB3]	0.47	0.47	0.11	0.35	0.50
Oc1ccccc1-c1ccc(Cl)cc1 [2'-OH PCB3]	0.14	0.14	0.00	0.71	0.07
O=S(=O)(O)Oc1cc(Cl)ccc1-c1ccccc1 [2-yl PCB 3 sulfate]	0.00	0.00	0.00	0.00	0.00
